The record followed here is publication PMC4737497.

By UniProt entry, the sequences of proteins in these tests, tags left out.
UniProt Q9UKB1: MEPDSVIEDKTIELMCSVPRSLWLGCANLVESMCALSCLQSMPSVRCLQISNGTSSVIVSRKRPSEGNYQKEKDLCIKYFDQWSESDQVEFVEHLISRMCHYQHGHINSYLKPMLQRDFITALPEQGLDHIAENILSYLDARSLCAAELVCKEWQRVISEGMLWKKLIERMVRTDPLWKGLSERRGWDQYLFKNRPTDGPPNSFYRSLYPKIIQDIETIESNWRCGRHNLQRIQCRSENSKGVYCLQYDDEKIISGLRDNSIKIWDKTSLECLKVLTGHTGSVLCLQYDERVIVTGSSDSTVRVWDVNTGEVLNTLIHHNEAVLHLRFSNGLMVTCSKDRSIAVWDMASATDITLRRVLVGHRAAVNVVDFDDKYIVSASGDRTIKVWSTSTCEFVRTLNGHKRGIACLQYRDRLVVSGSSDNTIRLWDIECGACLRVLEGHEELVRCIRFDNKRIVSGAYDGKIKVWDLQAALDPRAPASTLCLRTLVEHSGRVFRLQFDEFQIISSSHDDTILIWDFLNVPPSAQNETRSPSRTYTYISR
UniProt P21698: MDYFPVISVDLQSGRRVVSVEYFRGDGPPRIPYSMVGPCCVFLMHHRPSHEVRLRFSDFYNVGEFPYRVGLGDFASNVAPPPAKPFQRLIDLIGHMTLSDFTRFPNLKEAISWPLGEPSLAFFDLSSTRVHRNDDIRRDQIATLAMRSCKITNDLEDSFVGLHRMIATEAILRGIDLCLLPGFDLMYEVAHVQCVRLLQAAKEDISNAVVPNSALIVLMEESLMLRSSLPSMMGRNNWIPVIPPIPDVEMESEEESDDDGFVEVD

This test deals with HA-tagged FBXW11 (pcDNA3-HA-FBXW11) (UniProt Q9UKB1). The test is described as follows: co-IP.

These are yes or no findings as the source states them, for the method shown. In cells and extracts the contact can be indirect. Some entries that bind do so weakly or less than the wild type.

“NSs protein of Rift Valley fever virus with a C-terminal V5 tag, expressed from recombinant MP-12 virus (rMP-12-NSs-V5) (from UniProt P21698 1-265)”: the binding result is recorded as “binds”.
